In article PMC8921229:
Results are given in words; binding and its absence hold for the method and conditions named. Binding seen in cells or lysates may run through a third protein. Here binding means that the protein was enriched with, or labelled near, the bait; the list need not be complete.

The chains behind the UniProt entries cited, without tags or fusion partners.
UniProt P57764: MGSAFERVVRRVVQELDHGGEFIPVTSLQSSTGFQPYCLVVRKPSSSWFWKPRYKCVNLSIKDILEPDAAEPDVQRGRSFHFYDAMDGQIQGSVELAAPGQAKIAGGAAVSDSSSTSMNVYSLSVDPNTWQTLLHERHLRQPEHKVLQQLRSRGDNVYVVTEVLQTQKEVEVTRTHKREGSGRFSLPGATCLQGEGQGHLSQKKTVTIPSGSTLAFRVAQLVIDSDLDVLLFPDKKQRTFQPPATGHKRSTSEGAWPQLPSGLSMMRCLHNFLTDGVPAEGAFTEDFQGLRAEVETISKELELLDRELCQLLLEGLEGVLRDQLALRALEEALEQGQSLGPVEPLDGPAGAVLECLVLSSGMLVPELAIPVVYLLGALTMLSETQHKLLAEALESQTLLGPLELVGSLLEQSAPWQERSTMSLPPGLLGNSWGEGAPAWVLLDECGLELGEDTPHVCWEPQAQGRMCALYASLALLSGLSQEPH
UniProt P05198: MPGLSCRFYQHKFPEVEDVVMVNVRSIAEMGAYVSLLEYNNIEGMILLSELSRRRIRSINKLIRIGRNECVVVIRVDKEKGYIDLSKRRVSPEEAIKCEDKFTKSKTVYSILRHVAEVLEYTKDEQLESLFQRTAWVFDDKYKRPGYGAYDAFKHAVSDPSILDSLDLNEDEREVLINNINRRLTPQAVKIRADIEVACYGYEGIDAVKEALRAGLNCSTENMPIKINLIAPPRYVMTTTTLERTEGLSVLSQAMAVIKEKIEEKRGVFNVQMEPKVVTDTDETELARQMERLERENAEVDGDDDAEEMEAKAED

Molecular target: SFB-tagged GSDMD (human) (UniProt P57764)
Assay: affinity purification with mass spectrometry; co-IP of SFB-tagged GSDMD from a cell line with stable overexpression; proteins digested on the beads with trypsin; mass spectrometry

binding: binds
Substance: eIF2α (from UniProt P05198 1-315)
